# Results: PMC10168607
# T1: CBX7 (mouse (endogenous in ESCs)), Q8VDS3
# T1 chain: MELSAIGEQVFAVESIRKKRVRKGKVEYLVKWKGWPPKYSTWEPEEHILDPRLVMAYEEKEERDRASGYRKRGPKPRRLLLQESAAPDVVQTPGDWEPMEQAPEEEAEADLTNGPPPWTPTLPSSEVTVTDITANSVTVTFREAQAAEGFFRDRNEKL
# Target: T1, CBX7 (mouse (endogenous in ESCs)), …
# Assay: affinity purification with mass spectrometry; endogenous CBX7 immunoprecipitated from WT mouse ESC lysates with antibody cross-linked to Protein A beads, 250 U/mL Benzonase, 4 °C overnight, washes in Buffer C100 + 0.02% NP-40; IgG negative control; triplicate
# Settings: remark: other sources report otherwise
row,binding,Binder
1,binds,"PCGF2, P23798 1-342 (protein) MHRTTRIKITELNPHLMCALCGGYFIDATTIVECLHSFCKTCIVRYLETNKYCPMCDVQVHKTRPLLSIRSDKTLQDIVYKLVPGLFKDEMKRRRDFYAAYPLTEVPNGSNEDRGEVLEQEKGALGDDEIVSLSIEFYEGVRDREEKKNLTENGDGDKEKTGVRFLRCPAAMTVMHLAKFLRNKMDVPSKYKVEILYEDEPLKEYYTLMDIAYIYPWRRNGPLPLKYRVQPACKRLTLPTVPTPSEGTNTSGASECESVSDKAPSPATLPATSSSLPSPATPSHGSPSSHGPPATHPTSPTPPSTAAGTTTATNGGTSNCLQTPSSTSRGRKMTVNGAPCPP"
2,binds,"PHC1, Q64028 1-1010 (protein) METESEQNSSSTNGSSSSGASSRPQIAQMSLYERQAVQALQALQRQPNAAQYFHQFMLQQQLSNAQLHSLAAVQQATIAASRQASSPNSSTAQQQTATTQASMNLATTSAAQLISRSQSVSSPSATTLTQSVLLGNTTSPPLNQSQAQMYLRPQLGNLLQVNRTLGRNVPLASQLILMPNGAVAAVQQEVPPAQSPGVHADADQVQNLAVRNQQASAQGPQMPGSTQKAIPPGASPVSGLSQTSSQALAVAQASSGASGQSLNLSQAGGGSGNSLPGSMGPGGGGQAPGGLGQLPSSGLTGGSCPRKGTGVVQPLPAAQTVTVSQGSQTEAESAAAKKAEADGSGQQSVGMNLTRTATPAPSQTLISSATYTQIQPHSLIQQQQQIHLQQKQVVIQQQIAIHHQQQFQHRQSQLLHTATHLQLAQQQQQQQQQQQQQQQQQQQQQQGTTLTAPQPPQVPPTQQVPPSQSQQQAQTLVVQPMLQSSPLTLPPEPTSKPPIPIQSKPPVAPIKPPQLGAAKMSATQQPPPHIPVQVVGTRQPGSAQAQALGLAQLAAAVPTPRGITGAVQPGQAHLASSPPSSQAAPGALQECPPALAAGMTLAPVQGTAHVVKGGPTASSPVVAQVPAAFYMQSVHLPGKAQTLAVKRKAESEEERDDLSALASVLPTKASPAAESPKVIEEKNSLGEKAEPVASLNANPPNSDLVALAPTPSAPPPTLALVSRQMGDSKPPQAIVKPQILTHIIEGFVIQEGAEPFPVGCSQFLKETKKPLQAGLPTGLNESQPSGPLGGDSPSVELEKKANLLKCEYCGKYAPAEQFRGSKRFCSMTCAKRYNVSCSHQFRLKRKKMKEFQEASYARVRRRGPRRSSSDIARAKIQGKRHRGQEDSSRGSDNSSYDEALSPTSPGPLSVRAGHGERDLGNTITTPSTPELQGINPVFLSSNPSQWSVEEVYEFIASLQGCQEIAEEFRSQEIDGQALLLLKEEHLMSAMNIKLGPALKICAKINVLKET"

# Target: CBX7 (mouse (endogenous in ESCs)) (UniProt Q8VDS3)
# Assay: as above
# Settings: not given
row,Binder,binding
1,"PCGF1 (protein, UniProt Q8R023 1-259) MASPQGGQIAIAMRLRNQLQSVYKMDPLRNEEEVRVKIKDLNEHIVCCLCAGYFVDATTITECLHTFCKSCIVKYLQTSKYCPMCNIKIHETQPLLNLKLDRVMQDIVYKLVPGLQDSEEKRIREFYQSRGLDRVSQPSGEEPALSNLGLPFSSFDHSKAHYYRYDEQLSLCLERLSSGKDKNKNVLQNKYVRCSVRAEVRHLRRVLCHRLMLNPQHVQLLFDNEVLPDHMTMKQLWLSRWFGKPSPLLLQYSVKEKRR",binds
2,"PCGF4 (protein, UniProt P25916 1-324) MHRTTRIKITELNPHLMCVLCGGYFIDATTIIECLHSFCKTCIVRYLETSKYCPICDVQVHKTRPLLNIRSDKTLQDIVYKLVPGLFKNEMKRRRDFYAAHPSADAANGSNEDRGEVADEEKRIITDDEIISLSIEFFDQSRLDRKVNKEKPKEEVNDKRYLRCPAAMTVMHLRKFLRSKMDIPNTFQIDVMYEEEPLKDYYTLMDIAYIYTWRRNGPLPLKYRVRPTCKRMKMSHQRDGLTNAGELESDSGSDKANSPAGGVPSTSSCLPSPSTPVQSPHPQFPHISSTMNGTSNSPSANHQSSFASRPRKSSLNGSSATSSG",binds
3,"JARID2 (protein, UniProt Q62315 1-1234) MSKERPKRNIIQKKYDDSDGIPWSEERVVRKVLYLSLKEFKNAQKRQHGEGLAGSLKAVNGLLGNAQAKALGPASEQSENEKDDASQVSSTSNDVSSSDFEEGPSRKRPRLQAQRKFAQSQPNSPSTTPVKIVEPLLPPPATQISDLSKRKPKTEDFLTFLCLRGSPALPNSMVYFGSSQDEEDVEEEDDETEDVKATTNNASSSCQSTPRKGKTHKHVHNGHVFNGSSRSAREKEPAHKHRSKEATPGKEKHSEPRADSRREQASGAQPTAASAAASSAKGLAANHQPPPSHRSAQDLRKQVSKVNGVTRMSSLGAGTNSAKKIREVRPSPSKTVKYTATVTKGTVTYTKAKRELVKETKPNHHKPSSAVNHTISGKTESSNAKTRKQVLSLGGASKSTGPAASGLKASSRLNPKSCTKEVGGRQLREGLRNSKRRLEEAQQVDKPQSPPKKMKGVAGNAEAPGKKASAASGEKSLLNGHVKKEVPERSLERNRPKRAAAGKNMLGKQAHGKTEGTPCENRSTSQPESSHKPHDPQGKPEKGSGKSGWAAMDEIPVLRPSAKEFHDPLIYIESVRAQVEKYGMCRVIPPPDWRPECKLNDEMRFVTQIQHIHKLGRRWGPNVQRLACIKKHLRSQGITMDELPLIGGCELDLACFFRLINEMGGMQQVTDLKKWNKLADMLRIPKTAQDRLAKLQEAYCQYLLSYDSLSPEEHRRLEKEVLMEKEILEKRKGPLEGHTESDHHKFHSLPRFEPKNGLVHGVTPRNGFRSKLKEVGRAPLKTGRRRLFAQEKEVVKEEEEDKGVLNDFHKCIYKGRSVSLTTFYRTARNIMNMCFSKEPAPAEIEQEYWRLVEEKDCHVAVHCGKVDTNTHGSGFPVGKSEPFSRHGWNLTVLPNNTGSILRHLGAVPGVTIPWLNIGMVFSTSCWSRDQNHLPYIDYLHTGADCIWYCIPAEEENKLEDVVHTLLQGNGTPGLQMLESNVMISPEVLCKKGIKVHRTVQQSGQFVVCFPGSFVSKVCCGYNVSETVHFATTQWTSMGFETAKEMKRRHIAKPFSMEKLLYQIAQAEAKKENGPTLSTISALLDELRDTELRQRRLLFEAGLHSSARYGSHDGNSTVADGKKKPRKWLQLETSERRCQICQHLCYLSMVVQENENVVFCLECALRHVEKQKSCRGLKLMYRYDEEQIISLVNQICGKVSGKHGGIENCLNKPTPKRGPRKRATVDVPPSRLPSS",no binding

# Further lines, results first:
row,binding,Binder
1,binds,"PCGF6 (protein, UniProt Q99NA9 1-353) MDEAETDATENKRASEAKRASAMPPPPPPPPPISPPALIPAPAAGEEGPASLGQAGAAGCSRSRPPALEPERSLGRLRGRFEDYDEELEEEEEMEEEEEEEEEMSHFSLRLESGRADSEDEEERLINLVELTPYILCSICKGYLIDATTITECLHTFCKSCIVRHFYYSNRCPKCNIVVHQTQPLYNIRLDRQLQDIVYKLVINLEEREKKQMHDFYKERGLEVPKPAAPQPVPSSKGKTKKVLESVFRIPPELDMSLLLEFIGANEDTGHFKPLEKKFVRVSGEATIGHVEKFLRRKMGLDPACQVDIICGDHLLERYQTLREIRRAIGDTAMQDGLLVLHYGLVVSPLKIT"
2,binds,"PHC2 (protein, UniProt Q9QWH1 1-850) MENELPVPHTSNRASVTTNTSGTNSSSGCISSSGGGGGSGGRPTAPQISVYSGIPDRQTVQVIQQALHRQPSTAAQYLQQMYAAQQQHLMLQTAALQQQHLSSAQLQSLAAVQQASLVANRQGSTPGSSVSSQAPAQSSSLNLAASPAAAQLINRAQSVNSAAASGLAQQAVLLGNTSSPALTASQAQMYLRAQMLIFTPTATVATVQPELCTGSPARPPTPAQVQNLTLRTQQTPAAAASGPPPTQPVLPSLALKPTPSSSQPLPAPPQGRTMAQGSPAGAKPSGTDNAPETLKAGDGNCNMEGRPGPGRAVPAVATHPLIAPAYAHLQSHQLLPQPPAKHPQPQFVAQQQPQPPRPAPQVQSQPQLASVSPSLALQSSPEDHALPLGSVTQALPLQCSTTHVHKPGNSQQCHLPTLDTGSQNGHPEGGSHPPQRRFQHTSAVILQVQPASPVTPQQCAPDDWKEVVPAEKSVPVARPGPSPHQQAIIPAIPGGLPGPKSPNIQQCPAHETGQGIVHALTDLSSPGMTSGNGNSASSIAGTAPQNGENKPPQAIVKPQILTHVIEGFVIQEGAEPFPVGRSSLLVGNLKKKYAQGFLPEKPPQQDHTTTTDSEMEEPYLQESKEEGTPLKLKCELCGRVDFAYKFKRSKRFCSMACAKRYNVGCTKRVGLFHSDRSKLQKAGTTTHNRRRASKASLPTLTKDTKKQPSGTVPLSVTAALQLAHSQEDSSRCSDNSSYEEPLSPISASSSTSRRRQGQRDLDLPDMHMRDLVGVGHHFLPSEPTKWNVEDVYEFIRSLPGCQEIAEEFRAQEIDGQALLLLKEDHLMSAMNIKLGPALKIYARISMLKDS"
3,binds,"PHC3 (protein, UniProt Q8CHP6 1-981) MDSEPSSGTSVSTTASSTTTTTITTSSSRMQQPQISVYSGSDRHAVQVIQQALHRPPSSAAQYLQQMYAAQQQHLMLHTAALQQQHLSSSQLQSLAAVQASLSSGRPSTSPTGSVTQQSSMSQTSILSASPAPAQLMNRSQTSSSTSGSITQQTMLLGSTSPTLTASQAQMYLRAQMLIFTPATTVAAVQSDIPVVSSSPSPSCQSAAAQVQNLTLRSQKLGVLSSSQNGSPKSAGQTQSLTICHNKTTVTSSKISQRDPSPESKKGGSPGLESRSTAVTRTSSIHQLIAPASYSPIQPHSLIKHQQIPLHSPPPKVSHHQLLLQQQQQQIQPITLQSPSQDPPPSQHCIPLPNHGLSPAPSNAQPQHCSPVQSHPPPLTVSPNQAQSAQQSVVVSPPPPHSPSQSPTIIIHPQALIQPHPLVSSALQTGPNLQQAAADQVQSTAQLNLPSHLPLPASPVVHIGPVQQSALVSPGQQMVSPTSHQQYSALQSSPIPIATPPQMSASPPAQLPPLPLQSMQSLQVQPEILSQGQVLVQNALVSEEELPAAEALVQLPFQTLPPPQTVAVNLQVQPPAPVDPPVVYQVEDVCEEEMPEESDECARMDRTPPPPTLSPAAVTVGRGEDLTSEHPLLEQVELPAVASVSASVIKSPSDPTHASAPAPPLLIPAASTRSSSTSLASSTPSLENKPPQAIVKPQILTHVIEGFVIQEGLEPFPVSRSSLLIEQPVKKRPLLDNQVVNSVCVQPELQNNTKHADNSSDTEIEDMMAEETLEEMDSELLKCEFCGKMGYPNEFLRSKRFCTMSCAKRYNVSCSKKFALSRWNRKPDNQSLGHRGRRPSGPEGAAREHILRQLPITYPSAEEDVASHEDPVPSAMTTRLRRQSERERERELRDVRIRKMPENSDLLPVAQTEPSIWTVDDVWAFIHSLPGCQDVADEFRAQEIDGQALLLLKEDHLMSAMNMKLGPALKICARINSLKDS"

# Results are given in words; binding and its absence hold for the method and conditions named. Binding seen in cells or lysates may run through a third protein. These calls come from enrichment with a bait or labelling near it, and not all partners need be listed. For some assays here: No binding means not detected with the bait.
